In PubChem BioAssay AID2685 (National Center for Advancing Translational Sciences (NCATS), 2010):
Where “and” joins values, the source holds several entries; their conditions need not be identical. Equal entries are not always repeated. The list shows a part of the results. The main result of the screen is listed elsewhere. These columns were measured beside it and carry no call. Most of these compounds were active or inconclusive in the main read-out, so they are no random draw. Words in brackets tell the shape of the fitted curve; partial curves, single points and poor fits give uncertain potencies.

Assay: qHTS Assay for Lipid Storage Modulators in Drosophila S3 Cells;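 on cell number change: cells counted by Cell Tracker Red CMTPX staining in the red channel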
Details: BODIPY lipid droplet fluorescence, 18-24 h; for cell number change: measured here: cell count max response, cells fed with added oleic acid
Outline: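 Laser-scanning cytometry quantifies lipid droplet accumulation (500–530 nm total intensity; droplet/cell object ratio) in oleic acid-fed (400 uM added) Drosophila S3 cells treated with a concentration series. 20 uM Triacsin C defined 100% inhibition.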

[1] = measured here: lipid fluorescence (Fed channel) AC50, cells fed with added oleic acid
[2] = measured here: cell number channel AC50, cells fed with added oleic acid

Compound | cell number change | AC50 [1] | AC50 [2]
C/C(CC(=O)Nc1ccc(N(C)C)cc1)=N\NC(=O)c1cnccn1 | 10.4% | 11.6 µM [rising, partial curve, poor fit] | –
Cc1cc2oc(=O)cc(Cn3nnc(-c4ccc(Cl)cc4)n3)c2cc1C(C)C | 13.6% | 0.184 µM [rising, full curve, poor fit] | –
O=C(O)c1cnc(-c2ccccc2)nc1Sc1ccc(Cl)cc1Cl | 13.5% | – | –
c1ccc(-c2ccc(-c3ccccn3)nn2)nc1 | -14.7% | 0.00517 µM [falling, full curve, poor fit] | –
CC(C)Cc1nnc(NC(=O)CN2C(=O)NC3(CCCC3)C2=O)s1 | -50% | – | 2.06 µM [falling, full curve, poor fit]
Cc1cc(C(=O)N2CCN(S(=O)(=O)c3ccc(F)c(Cl)c3)CC2)c(C)o1 | -3.13% | 29.1 µM [falling, single point] | –
COCc1ccc(C(=O)NC2CCCc3c2cnn3-c2ccc(C)c(C)c2)o1 (stereo not given) | -9.9% | 0.0206 µM [falling, full curve] | 0.058 µM [falling, full curve, poor fit]
Cc1nnsc1C(=O)N1CCCC(N2CCN(c3ccc(F)cc3)CC2)C1 (stereo not given) | 22.9% | 9.2 µM [rising, partial curve, poor fit] | –
CCc1cc(=O)oc2cc(C)cc(OC(C)C(=O)NCc3ccccn3)c12 (stereo not given) | 23.4% | – | –
Cc1ccc2cccc(OCC(=O)Nc3ccc4c(c3)OCO4)c2n1 | 18.5% | – | –
COc1ccccc1CCC(=O)OCC(=O)Nc1ccc(C)c(S(=O)(=O)N2CCCCC2)c1 | 9.78% | 5.8 µM [rising, full curve, poor fit] | –
CC1CCN(C(=O)C(=O)c2cn(CC(=O)N3CCCCCC3)c3ccccc23)CC1 | – | 23.1 µM [falling, single point] | 5.17 µM [rising, single point]
O=C(Nn1c(-c2ccncc2)nc2ccccc2c1=O)c1ccc([N+](=O)[O-])cc1Cl | – | 16.4 µM [rising, partial curve] | 6.51 µM [rising, single point]
COc1cccc(NC(=S)N2CCN(c3ccc([N+](=O)[O-])cc3)CC2)c1 | -14.4% | – | –
CCOC(=O)N1CCN(c2c(Nc3cc(C)[nH]n3)c(=O)c2=O)CC1 | -4.05% | 0.651 µM [falling, partial curve, poor fit] | –
COc1ccc(CSC2=NCCN2)cc1Cl | -5.56% | – | –
COc1ccccc1NC(=O)Nc1ccnn1C1CCCCC1 | -15.1% | – | –
COc1cccc(CNC(=O)COC(=O)c2cc([N+](=O)[O-])ccc2N2CCCC2)c1 | -37.1% | 18.4 µM [falling, single point] | 29.1 µM [falling, single point]
CCOC(=O)C1=C(C)Nc2ncnn2C1c1c[nH]c2ccccc12 (stereo not given) | -2.86% | 29.1 µM [rising, single point] | –
NC(=O)C1CCN(C(=O)COc2cccc3ccccc23)CC1 | 3.5% | 3.66 µM [falling, single point] | –
CCNC(=O)CC(=O)Nc1ccccc1C(=O)O | -20.5% | 0.651 µM [falling, full curve] | –

Grouped by structure: the entries above with fluorine (2)
Compound | cell number change | AC50 [1] | AC50 [2]
Cc1cc(C(=O)N2CCN(S(=O)(=O)c3ccc(F)c(Cl)c3)CC2)c(C)o1 | -3.13% | 29.1 µM [falling, single point] | –
Cc1nnsc1C(=O)N1CCCC(N2CCN(c3ccc(F)cc3)CC2)C1 (stereo not given) | 22.9% | 9.2 µM [rising, partial curve, poor fit] | –

Next results.

Compound | cell number change | AC50 [1] | AC50 [2]
C=C1C[C@]23C[C@@]1(O)CC[C@H]2[C@@]12C=C[C@H](O)[C@@](C)(C(=O)O1)[C@H]2[C@@H]3C(=O)O | -23.9% | 103 nM [rising, single point] and 1.64 µM [falling, partial curve, poor fit] | –
Cc1ccc2nc(SCC(=O)Nc3ccc(Cl)cc3)nc(=O)n2c1 | -11.4% | 0.13 µM [falling, full curve, poor fit] | –
CN(C)C1=NC(=O)/C(=C\c2ccccc2)S1 | -20.5% | 3.66 µM [falling, full curve] | 2.59 µM [falling, partial curve, poor fit]
COc1cccc(OC)c1C(=O)Nc1ccc(N2CCCCC2)cc1 | 13.4% | 0.731 µM [falling, full curve] | –
CCS(=O)(=O)NCCc1csc(-c2cccnc2)n1 | 47% | – | 0.164 µM [rising, full curve, poor fit]
O=C(C1CCC1)N1CCc2cc(S(=O)(=O)NC3CCCc4ccccc43)ccc21 (stereo not given) | 87.2% | 2.31 µM [rising, partial curve] | 1.64 µM [rising, full curve]
Cc1cc(N2CCN(S(=O)(=O)c3ccc(C)c(C)c3)CC2)c2ccccc2n1 | 42.3% | 0.731 µM [falling, single point] | 9.2 µM [rising, partial curve, poor fit]
CCCNC(=O)C(=O)NCC(c1ccc2c(c1)OCO2)N1CCN(c2ccc(F)cc2)CC1 (stereo not given) | -6.57% | – | –
COC(=O)c1ccc(/C=C/C(=O)c2ccc(OC)c(OC)c2)cc1 | -19.8% | 29.1 µM [falling, single point] | –
COc1ccc(CN2C(=O)C(CC(C)C)Nc3ncnc(N4CCCCC4)c32)cc1 (stereo not given) | -33.6% | – | 9.2 µM [falling, partial curve, poor fit]
Cc1cc(NC(=O)COC(=O)c2ccco2)no1 | -45.4% | 20.6 µM [falling, partial curve, poor fit] | 25.9 µM [falling, single point]
O=C(NCC1CCCO1)C1CCCN(S(=O)(=O)c2cccc(C(F)(F)F)c2)C1 (stereo not given) | 25.2% | 29.1 µM [rising, single point] | –
CCOc1cc(/C=C(/C#N)C(=O)Nc2ccc(O)cc2)cc(Br)c1O | 13.1% | 0.731 µM [falling, full curve] | 0.82 µM [falling, full curve, poor fit]
O=C(CNC(=O)c1ccccc1F)c1ccccc1 | 6.3% | 29.1 µM [rising, single point] | –
CCOc1cc(N2CCOCC2)c(OCC)cc1NC(=O)COC(=O)c1cc(C)cc(C)c1 | 6.45% | 0.231 µM [rising, full curve, poor fit] | –
Cc1ccc(S(=O)(=O)N2CCCCC2)cc1 | 3.75% | 0.13 µM [falling, full curve, poor fit] | –
Cc1cc(C)n(-c2nc3ccccc3nc2N2CCN(C(=O)c3ccc(Cl)cc3)CC2)n1 | 4.01% | 8.2 µM [rising, partial curve] | –
Cc1c(F)cccc1NC(=O)c1ccc2c(c1)CCN2S(C)(=O)=O | -1.69% | 29.1 µM [falling, single point] | –
O=C(c1ccc(F)cc1)N(Cc1ccccc1)C1CCS(=O)(=O)C1 (stereo not given) | 4.64% | – | –
O=C(Nc1cccc2cccnc12)c1cccc(Cl)c1 | -21.5% | – | –
CCCCc1ccc(NC(=S)NCc2cccc(OC)c2)cc1 | -17.3% | 25.9 µM [falling, partial curve, poor fit] | –

Compound | cell number change | AC50 [1] | AC50 [2]
COc1ccccc1N1CCN(C(=O)Cn2nnc(-c3cccs3)n2)CC1 | 93.2% | 5.8 µM [rising, partial curve] | 10.3 µM [rising, partial curve]
O=C(CSc1n[nH]c(-c2cc(Cl)ccc2Cl)n1)NCCN1C(=O)CSC1=O | – | 13 µM [falling, partial curve] | –
CN(C)c1nc(N)nc(CSc2ncc(Cl)cc2Cl)n1 | -53.9% | – | 14.6 µM [falling, partial curve, poor fit]
Cc1ccc(NCC(=O)N/N=C/c2cc(O)ccc2[N+](=O)[O-])cc1 | 10.3% | – | 0.092 µM [rising, partial curve, poor fit]
COC(=O)c1cccc(NC(=O)CSc2nnc(-c3ccco3)o2)c1 | -7.39% | – | –
Fc1ccc(CSc2ccc3nnc(-c4cccnc4)n3n2)cc1 | -69.1% | – | 29.1 µM [falling, single point]
CC(NCC(=O)Nc1ccccc1C(=O)NC1CC1)c1cccc(Cl)c1 (stereo not given) | -20% | – | –
Cc1cc(C)c(S(=O)(=O)N2CCCC2=O)c(C)c1N(C)S(C)(=O)=O | 8.42% | 0.82 µM [falling, single point] | –
COc1ccccc1C(=O)Nc1nnc(S(=O)(=O)N2CCC(C)CC2)s1 | -9.48% | 8.2 µM [falling, partial curve, poor fit] | –
Cc1ccc2c(Cl)cc(Cl)c(OCC(=O)Nc3cccc(S(=O)(=O)N(C)C)c3)c2n1 | 29.5% | 1.84 µM [rising, full curve] | –
COc1cc(C(=S)N2CCOCC2)cc(OC)c1OC(=O)c1ccccc1[N+](=O)[O-] | -32.5% | – | 6.51 µM [falling, partial curve]
Cc1ccc(-c2csc(NC(=O)c3ccco3)n2)cc1C | -1.35% | – | –
CCOc1ccccc1C(=O)Nc1cccc2ccccc12 | -18.3% | – | –
CC(C)C(=O)N=c1sc2cc(F)cc(F)c2n1C | 4.75% | 4.11 µM [rising, full curve, poor fit] | –
CC(C)(C)N(Cc1ccccc1)C(=O)c1ccc(Cl)cc1[N+](=O)[O-] | 18.8% | – | –
CCCCn1c(N2CCCC2)nc2c1c(=O)[nH]c(=O)n2C | -12.5% | – | –
Cc1ccccc1C(=O)Nc1cccc(NC(=O)c2cccnc2)c1 | 4.27% | 6.51 µM [rising, partial curve] | –
Cc1ccccc1-n1ccnc1SCC(=O)O | 1.39% | 0.184 µM [falling, full curve, poor fit] | –
Cc1ccc2c(c1)c1ncnc(N3CCC4(CC3)OCCO4)c1n2C | 9.95% | 2.06 µM [rising, full curve] | –
Brc1ccc(OCc2ccccc2)c(CNCC2CCCO2)c1 (stereo not given) | 11.4% | – | –
